Experimental data as given in patent US20090136500A1.
These are yes or no findings as the source states them, for the method shown. A result given as binding can be weak or reduced; the word gives no strength.

How the values were obtained:
rabbit PAI-1 (rabbit) [1] = assay: P-ELISA: biotin-labeled PAI-1 on streptavidin/Neutravidin coated wells, HRP-conjugated secondary antibody, O.D. 450
rabbit PAI-1 (rabbit) [2] = assay: P-ELISA
rabbit PAI-1 (rabbit) [3] = assay: P-ELISA (FIG. 12 legend)

Measured: binding

B1: CT140 (humanized version of murine monoclonal antibody 33B8, IgG4 with the hinge of IgG1) (antibody, V domains shown)
VH: QVQLVQSGAEVKKPGASVKVSCKASGYTFTNYGMNWVRQAPGQGLEWMGWINTYTGEPTYTDDFKGRFTMTLDTSISTAYMELSRLRSDDTAVYYCAKDVSGFVFDYWGQGTLVTVSS
VL: DIVMTQSPDSLAVSLGERATINCKSSQSLLNIIKQKNCLAWYQQKPGQPPKLLIYWASTRESGVPDRFSGSGSGTDFTLTISSLQAEDVAVYYCQQYYSYPYTFGQGTKLEIKR
binds: all assays above
